Measurements: PMC6322289
Results are given in words; binding and its absence hold for the method and conditions named. Some results given as binding are weak or reduced against the parent protein; the word gives no strength.

The chains behind the UniProt entries cited, without tags or fusion partners. Residues count along the entry.
UniProt P52407, residues 37-356: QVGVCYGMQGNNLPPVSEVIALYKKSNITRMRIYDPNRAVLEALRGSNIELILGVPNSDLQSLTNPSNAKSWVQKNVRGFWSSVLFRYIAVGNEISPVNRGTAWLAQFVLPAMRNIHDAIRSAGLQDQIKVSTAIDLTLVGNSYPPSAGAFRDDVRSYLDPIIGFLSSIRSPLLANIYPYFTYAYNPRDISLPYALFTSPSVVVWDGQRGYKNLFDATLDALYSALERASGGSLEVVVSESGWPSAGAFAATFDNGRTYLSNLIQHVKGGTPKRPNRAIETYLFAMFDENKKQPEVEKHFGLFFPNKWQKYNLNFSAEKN

T1: pro-hevein (Hevea brasiliensis (endogenous in latex of clone CATAS7-33-97)) (UniProt P02877)
T1 sequence: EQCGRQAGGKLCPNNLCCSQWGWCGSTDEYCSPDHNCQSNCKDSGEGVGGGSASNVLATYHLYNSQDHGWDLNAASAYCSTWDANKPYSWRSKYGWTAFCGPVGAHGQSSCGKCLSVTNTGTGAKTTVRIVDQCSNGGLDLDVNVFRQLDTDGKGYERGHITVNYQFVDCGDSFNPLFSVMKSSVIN


Experiments:
[1] = molecular target: T1, pro-hevein (Hevea brasiliensis (endogenous in latex of clone CATAS7-33-97)); assay: SEC; clarified B-serum on Sephacryl S-200HR (70 x 2.6 cm), eluted with 50 mM Tris-HCl + 25 mM NaCl, pH 7.2; peaks read by Tricine-SDS-PAGE and western blotting; control elution at pH 5.5
[2] = molecular target: β-1,3-glucanase (Hevea brasiliensis (endogenous in latex of clone CATAS7-33-97)) (UniProt P52407); assay: as above

binding [1] | binding [2] | Binder
binds | binds | EQCGRQAGGKLCPNNLCCSQWGWCGSTDEYCSPDHNCQSNCKD (peptide, UniProt P02877 18-60) [hevein]
– | binds | pro-hevein (protein, UniProt P02877 18-204) EQCGRQAGGKLCPNNLCCSQWGWCGSTDEYCSPDHNCQSNCKDSGEGVGGGSASNVLATYHLYNSQDHGWDLNAASAYCSTWDANKPYSWRSKYGWTAFCGPVGAHGQSSCGKCLSVTNTGTGAKTTVRIVDQCSNGGLDLDVNVFRQLDTDGKGYERGHITVNYQFVDCGDSFNPLFSVMKSSVIN
